No constants are given. Whether binding was seen depends on the method and setting. Some results given as binding are weak or reduced against the parent protein; the word gives no strength. Each block holds one binder with its values, some of them ahead of it.
Target: recombinant human TRP2 (human) (UniProt P40126)
Test: ELISA on recombinant human TRP2 (Fig. 7B)

Chains of the proteins cited; added tags and fusions are not shown. Residues count along the entry.
UniProt P40126, residues 24-472: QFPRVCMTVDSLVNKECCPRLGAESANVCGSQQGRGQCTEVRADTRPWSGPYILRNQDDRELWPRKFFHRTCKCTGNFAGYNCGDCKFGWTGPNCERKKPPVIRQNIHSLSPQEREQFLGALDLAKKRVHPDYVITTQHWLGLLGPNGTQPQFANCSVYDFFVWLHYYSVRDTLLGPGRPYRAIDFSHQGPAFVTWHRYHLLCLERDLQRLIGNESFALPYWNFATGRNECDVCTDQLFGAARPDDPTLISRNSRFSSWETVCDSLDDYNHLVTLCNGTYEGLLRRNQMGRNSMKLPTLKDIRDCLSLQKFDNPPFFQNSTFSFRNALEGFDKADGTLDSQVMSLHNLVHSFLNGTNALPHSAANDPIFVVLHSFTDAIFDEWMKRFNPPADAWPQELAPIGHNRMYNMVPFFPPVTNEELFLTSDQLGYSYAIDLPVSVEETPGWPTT

binding: binds
B2: Clone 8 (monoclonal antibody) (antibody, V domains shown)
VH: QVQLQQSGAELVKPGASVKISCKASGYTFSNYWMNWVKQRPGKGLQWIGQIYPGDGDTNYNGKFEGTATLTADKSSSTAYMQLSSLTSEDSAVYFCARAYYDYAYYFDYWGQGTTLTVSS
VL: ETTVTQSPASLSVATGEKVTIRCIISTDIDDDMNWYQQKPGEPPKLLISEGNTLRPGVPSRFSSSGYGTDFVFTIENTLSEDVADYYCLQSDNMPLTFGGGTKLEIK

binding: binds
B4: Clone 7 (monoclonal antibody) (antibody, V domains shown)
VH: QVQLQQSGAELVRPGASVTLSCKAPGYIFIDYEIHWVKQTPVHGLEWIGAIDPETGGTAYNQKFKGKARLTADISSSTAYMDLRSLTSEDSAVYYCTRDYGYDDFGVWGTGTTVTVSS
VL: DIVMTQSHKFMSTSVGDRVNITCKASQDVNTAVAWYQQAPGQSPKLLIYSASYRYTGVPDRFTGSGSGTDFTFTISSVKAEDLAVYYCQQHYSTPYTFGGGTKLEIK

binding: binds
B5: Clone 6 (anti-TRP2 monoclonal antibody) (antibody, V domains shown)
VH: QVQLQQSGAELMKPGASVKLSCKATGYTFTGYWIEWVKQRPGHGLEWIGEILPGSGSTNYNEKFKGKATFTADTSSNTAYMQLSSLTTEDSAIYYCASGAYWGQGTLVTVSA
VL: DIQMTQSPASLSVSVGETVTITCRASENIYSNLAWYQQKQGKSPQLLVYAATNLADGVPSRFSGSGSGTQYSLKINSLQSEDFGSYYCQHFWGTPYTFGGGTKLEIK

Second part, the binder before the results:

B1: Clone 5 (monoclonal antibody) (antibody, V domains shown)
VH: DVQLQESGPGLVKPSQSLSLTCSVTGYSITSGYYWNWIRQFPGNKLEWMGYISYDGSNNYNPSLKNRISITRDTSKNQFFLKLNSVTTEDTATYYCAREGYYGNEGYWGQGTTLTVSS
VL: DIQMTQTTSSLSASLGDRVTISCRASQDISNYLNWYQQKPDGTVKLLIYYTSRLHSGVPSRFSGSGSGTDYSLTISNLEQEDIATYFCQQGNTLPYTFGGGTKLEIK
binding: binds

B3: Clone 2 (anti-TRP2 monoclonal antibody) (antibody, V domains shown)
VH: EVQLVESGGDLVKPGGSLKLSCAASGFTFSSYGMSWVRQTPDKRLEWVATISSGGSYTYYPDSVKGRFTISRDNAKNTLYLQMSSLKSEDTAMYYCARLGVTTVVHGAMDYWGQGTSVTVSS
VL: DIQMTQSPASLSASVGETVTITCRASENIYSYLAWYQQKQGKSPQLLVYNAKTLAEGVPSRFSGSGSGTQFSLKINSLQPEDFGSYYCQHHYGTPWTFGGGTKLEIK
binding: binds

Reference: patent EP4549469A1
